Source: patent US20240325565A1, “COMBINATION TREATMENT FOR SOLID TUMORS INCLUDING A STING AGONIST AND A CCR2 ANTAGONIST” (University of Pittsburgh - Of the Commonwealth System of …, priority 2023, published 2024)
For at least one compound, name, drawing or mass did not settle the structure.

Assay: Biodistribution and tumor retention in orthotopic KPC pancreatic tumor model
Format: in vivo, mice
Settings: compared to the kinetics of DiR in tumors

O=C(NCC(=O)N1CC[C@H](N[C@H]2CC[C@@](O)(c3ccc(-c4ncccn4)cn3)CC2)C1)c1cccc(C(F)(F)F)c1 [PF-04136309, N-(2-((S)-3-(((1r,4S)-4-hydroxy-4-(5-(pyrimidin-2-yl)pyridin-2-yl)cyclohexyl)amino)pyrrolidin-1-yl)-2-oxoethyl)-3-(trifluoromethyl)benzamide]
clearance of PF in tumors: relatively faster clearance
